Some entries share one result that the patent states for a list of compounds. Blank lines part the entries; values can stand above or below the molecule they belong to.
Target: T1, human estrogen receptor beta (Homo sapiens, UniProt Q92731)
T1 construct: expressed in transfected cells; host or cells: HEK293 (CRL-1573)
Test: Transactivation assay 2: human embryonic kidney 293 cells stably transfected with pERE2-ALP and human estrogen receptor beta
Format: cell-based
Conditions: in the transactivation assays 1 and 2

Protein sequences, listed by entry. Tags and fused reporters are not part of them.
UniProt Q92731, whole entry: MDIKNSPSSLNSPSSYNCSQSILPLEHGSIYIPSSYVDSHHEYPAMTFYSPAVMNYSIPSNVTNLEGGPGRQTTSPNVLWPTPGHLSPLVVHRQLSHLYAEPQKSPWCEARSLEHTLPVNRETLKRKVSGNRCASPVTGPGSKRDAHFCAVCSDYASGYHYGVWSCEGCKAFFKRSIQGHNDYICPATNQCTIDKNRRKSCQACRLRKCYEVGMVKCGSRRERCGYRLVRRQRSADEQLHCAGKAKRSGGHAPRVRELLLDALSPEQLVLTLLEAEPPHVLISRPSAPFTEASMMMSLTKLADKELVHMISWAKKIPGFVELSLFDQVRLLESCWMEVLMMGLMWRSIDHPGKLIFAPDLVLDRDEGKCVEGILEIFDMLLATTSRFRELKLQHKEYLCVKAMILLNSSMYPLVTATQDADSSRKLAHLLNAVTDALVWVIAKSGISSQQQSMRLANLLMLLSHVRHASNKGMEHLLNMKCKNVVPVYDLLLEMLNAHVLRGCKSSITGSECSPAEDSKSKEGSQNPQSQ

Compound: N#Cc1cc(C(N)=NO)c(-c2cc(F)cc(F)c2)c(-c2ccc(O)cc2)c1 [Example 327, 5′-cyano-3″,5″-difluoro-N′,4-dihydroxy-[1,1′:2′,1″-terphenyl]-3′-carboximidamide]
- selectivity for the estrogen receptor β-subtype over the estrogen receptor α-subtype: ≥ 20

Compound: Cc1ccc(Cl)cc1-c1c(C(N)=NO)cccc1-c1ccc(O)cc1 [Example 176, 5′′-chloro-N′,4-dihydroxy-2′′-methyl-[1,1′:2′,1′′-terphenyl]-3′-carboximidamide]
- selectivity for the estrogen receptor β-subtype over the estrogen receptor α-subtype: ≥ 20

Compound: COc1c(F)cccc1-c1c(C(N)=NO)cc(C(F)(F)F)cc1-c1ccc(O)cc1F [Example 127, 2,3′′-difluoro-N′,4-dihydroxy-2′′-methoxy-5′-(trifluoromethyl)-[1,1′:2′,1′′-terphenyl]-3′-carboximidamide]
- selectivity for the estrogen receptor β-subtype over the estrogen receptor α-subtype: ≥ 20

Compound: COc1c(F)cc(F)cc1-c1c(C(N)=NO)cc(C)cc1-c1ccc(O)cc1 [Example 141, 3′′,5′′-difluoro-N′,4-dihydroxy-2′′-methoxy-5′-methyl-[1,1′:2′,1′′-terphenyl]-3′-carboximidamide]
- selectivity for the estrogen receptor β-subtype over the estrogen receptor α-subtype: ≥ 20

Compound: C=Cc1ccc(F)cc1-c1c(C(N)=NO)cc(C(F)(F)F)cc1-c1ccc(O)cc1F [Example 285, 2,5″-difluoro-N′,4-dihydroxy-5′-(trifluoromethyl)-2″-vinyl-[1,1′:2′,1″-terphenyl]-3′-carboximidamide]
- selectivity for the estrogen receptor β-subtype over the estrogen receptor α-subtype: ≥ 20

Compound: Cc1ccc(F)cc1-c1c(C(N)=NO)cc(C(F)(F)F)cc1-c1ccc(O)cc1F [Example 122, 2,5′′-difluoro-N′,4-dihydroxy-2′′-methyl-5′-(trifluoromethyl)-[1,1′:2′,1′′-terphenyl]-3′-carboximidamide]
- selectivity for the estrogen receptor β-subtype over the estrogen receptor α-subtype: ≥ 20

Compound: Cn1cncc1-c1c(C(N)=NO)cc(Br)cc1-c1ccc(O)cc1 [Example 62, 5-bromo-N′,4′-dihydroxy-2-(1-methyl-1H-imidazol-5-yl)-[1,1′-biphenyl]-3-carboximidamide]
- selectivity for the estrogen receptor β-subtype over the estrogen receptor α-subtype: ≥ 20

Compound: Cc1ccsc1-c1c(C(N)=NO)cc(Br)cc1-c1ccc(O)cc1 [Example 9, 5-bromo-N′,4′-dihydroxy-2-(3-methylthiophen-2-yl)-[1,1′-biphenyl]-3-carboximidamide]
- selectivity for the estrogen receptor β-subtype over the estrogen receptor α-subtype: ≥ 20

Compound: C=Cc1ccccc1-c1c(C(N)=NO)cc(C)cc1-c1ccc(O)cc1 [Example 140, N′,4-dihydroxy-5′-methyl-2′′-vinyl-[1,1′:2′,1′′-terphenyl]-3′-carboximidamide]
- selectivity for the estrogen receptor β-subtype over the estrogen receptor α-subtype: ≥ 20

Compound: CCCc1cc(C(N)=NO)c(-c2cc(F)ccc2F)c(-c2ccc(O)cc2)c1 [Example 46, 2′′,5′′-difluoro-N′,4-dihydroxy-5′-propyl-[1,1′:2′,1′′-terphenyl]-3′-carboximidamide]
- selectivity for the estrogen receptor β-subtype over the estrogen receptor α-subtype: ≥ 20

Compound: Cc1cc(C(N)=NO)c(-c2cccnc2C)c(-c2ccc(O)cc2)c1 [Example 221, N′,4′-dihydroxy-5-methyl-2-(2-methylpyridin-3-yl)-[1,1′-biphenyl]-3-carboximidamide]
- selectivity for the estrogen receptor β-subtype over the estrogen receptor α-subtype: ≥ 20

Compound: COc1cc(C(N)=NO)c(-c2ccccc2)c(-c2ccc(O)cc2)c1 [Example 224, N′,4-dihydroxy-5′-methoxy-[1,1′:2′,1′′-terphenyl]-3′-carboximidamide]
- selectivity for the estrogen receptor β-subtype over the estrogen receptor α-subtype: ≥ 20

Compound: Cc1cc(C(N)=NO)c(-c2ccc(Cl)c(F)c2)c(-c2ccc(O)cc2)c1 [Example 192, 4′′-chloro-3′′-fluoro-N′,4-dihydroxy-5′-methyl-[1,1′:2′,1′′-terphenyl]-3′-carboximidamide]
- selectivity for the estrogen receptor β-subtype over the estrogen receptor α-subtype: ≥ 20

Compound: CCCc1cc(C(N)=NO)c(-c2coc3ccccc23)c(-c2ccc(O)cc2)c1 [Example 39, 2-(benzofuran-3-yl)-N′,4′-dihydroxy-5-propyl-[1,1′-biphenyl]-3-carboximidamide]
- selectivity for the estrogen receptor β-subtype over the estrogen receptor α-subtype: ≥ 20

Compound: CCCc1cc(C(N)=NO)c(-c2cccc(Cl)c2)c(-c2ccc(O)cc2)c1 [Example 30, 3′′-chloro-N′,4-dihydroxy-5′-propyl-[1,1′:2′,1′′-terphenyl]-3′-carboximidamide]
- selectivity for the estrogen receptor β-subtype over the estrogen receptor α-subtype: ≥ 20

Compound: COc1ccc(-c2c(C#N)cc(Cl)cc2-c2ccc(O)cc2)c(OC)c1 [Example 258, 5′-chloro-4-hydroxy-2′′,4′′-dimethoxy-[1,1′:2′,1′′-terphenyl]-3′-carbonitrile]
- selectivity for the estrogen receptor β-subtype over the estrogen receptor α-subtype: ≥ 20

Compound: NC(=O)c1cc(OC(F)(F)F)cc(-c2ccc(O)cc2)c1-c1cc(F)cc(F)c1 [Example 316, 3″,5″-difluoro-4-hydroxy-5′-(trifluoromethoxy)-[1,1′:2′,1″-terphenyl]-3′-carboxamide]
- selectivity for the estrogen receptor β-subtype over the estrogen receptor α-subtype: ≥ 20

Compound: COc1ccc(F)cc1-c1c(C(N)=NO)cc(Cl)cc1-c1ccc(O)c(C)c1 [Example 308, 5′-chloro-5″-fluoro-N′,4-dihydroxy-2″-methoxy-3-methyl-[1,1′:2′,1″-terphenyl]-3′-carboximidamide]
- selectivity for the estrogen receptor β-subtype over the estrogen receptor α-subtype: ≥ 20

Other lines, results leading:

- selectivity for the estrogen receptor β-subtype over the estrogen receptor α-subtype: ≥ 20
Compound: CCCc1cc(C(N)=NO)c(-c2c(C)csc2C)c(-c2ccc(O)cc2)c1 [Example 21, 2-(2,4-dimethylthiophen-3-yl)-N′,4′-dihydroxy-5-propyl-[1,1′-biphenyl]-3-carboximidamide]

- selectivity for the estrogen receptor β-subtype over the estrogen receptor α-subtype: ≥ 20
Compound: NC(=NO)c1cc(F)cc(-c2ccc(O)cc2)c1-c1ccccc1 [Example 165, 5′-fluoro-N′,4-dihydroxy-[1,1′:2′,1′′-terphenyl]-3′-carboximidamide]

- selectivity for the estrogen receptor β-subtype over the estrogen receptor α-subtype: ≥ 20
Compound: NC(=O)c1cc(OC(F)(F)F)cc(-c2ccc(O)cc2)c1-c1ccccc1 [Example 315, 4-hydroxy-5′-(trifluoromethoxy)-[1,1′:2′,1″-terphenyl]-3′-carboxamide]

- selectivity for the estrogen receptor β-subtype over the estrogen receptor α-subtype: ≥ 20
Compound: NC(=NO)c1cc(OC(F)(F)F)cc(-c2ccc(O)cc2)c1-c1ccccc1 [Example 312, N′,4-dihydroxy-5′-(trifluoromethoxy)-[1,1″:2′,1″-terphenyl]-3′-carboximidamide]

- selectivity for the estrogen receptor β-subtype over the estrogen receptor α-subtype: ≥ 20
Compound: NC(=NO)c1cc(C(F)(F)F)cc(-c2ccc(O)cc2)c1N1CCCC1 [Example 328, N′,4′-dihydroxy-2-(pyrrolidin-1-yl)-5-(trifluoromethyl)-[1,1′-biphenyl]-3-carboximidamide]

- selectivity for the estrogen receptor β-subtype over the estrogen receptor α-subtype: ≥ 20
Compound: Cc1cc(C(N)=NO)c(-c2cc(Cl)cc(Cl)c2)c(-c2ccc(O)cc2)c1 [Example 183, 3′′,5′′-dichloro-N′,4-dihydroxy-5′-methyl-[1,1′:2′,1′′-terphenyl]-3′-carboximidamide]

- selectivity for the estrogen receptor β-subtype over the estrogen receptor α-subtype: ≥ 20
Compound: NC(=O)c1cc(C(F)(F)F)cc(-c2ccc(O)cc2)c1-c1cc(F)cc(F)c1 [Example 199, 3′′,5′′-difluoro-4-hydroxy-5′-(trifluoromethyl)-[1,1′:2′,1′′-terphenyl]-3′-carboxamide]

- selectivity for the estrogen receptor β-subtype over the estrogen receptor α-subtype: ≥ 20
Compound: NC(=NO)c1cc(OC(F)(F)F)cc(-c2ccc(O)cc2)c1-c1cc(F)cc(F)c1 [Example 313, 3″,5″-difluoro-N′,4-dihydroxy-5′-(trifluoromethoxy)-[1,1′:2′,1″-terphenyl]-3′-carboximidamide]

- selectivity for the estrogen receptor β-subtype over the estrogen receptor α-subtype: ≥ 20
Compound: NC(=O)c1cc(C(F)(F)F)cc(-c2ccc(O)cc2)c1C1=CCCC1 [Example 276, 2-(cyclopent-1-en-1-yl)-4′-hydroxy-5-(trifluoromethyl)-[1,1′-biphenyl]-3-carboxamide]

- selectivity for the estrogen receptor β-subtype over the estrogen receptor α-subtype: ≥ 20
Compound: Cc1csc(C)c1-c1c(C(N)=NO)cc(Cl)cc1-c1ccc(O)cc1 [Example 81, 5-chloro-2-(2,4-dimethylthiophen-3-yl)-N′,4′-dihydroxy-[1,1′-biphenyl]-3-carboximidamide]

- selectivity for the estrogen receptor β-subtype over the estrogen receptor α-subtype: ≥ 20
Compound: COc1ccc(Cl)cc1-c1c(C(N)=NO)cc(C(C)C)cc1-c1ccc(O)cc1 [Example 319, 5″-chloro-N′,4-dihydroxy-5′-isopropyl-2″-methoxy-[1,1′:2′,1″-terphenyl]-3′-carboximidamide]

- selectivity for the estrogen receptor β-subtype over the estrogen receptor α-subtype: ≥ 20
Compound: NC(=O)c1cc(C(F)(F)F)cc(-c2cc(F)c(O)c(Cl)c2)c1-c1ccccc1 [Example 298, 3-chloro-5-fluoro-4-hydroxy-5′-(trifluoromethyl)-[1,1′:2′,1″-terphenyl]-3′-carboxamide]

- selectivity for the estrogen receptor β-subtype over the estrogen receptor α-subtype: ≥ 20
Compound: CCCc1cc(C(N)=NO)c(-c2ccc(Cl)cc2)c(-c2ccc(O)cc2)c1 [Example 33, 4′′-chloro-N′,4-dihydroxy-5′-propyl-[1,1′:2′,1′′-terphenyl]-3′-carboximidamide]

- selectivity for the estrogen receptor β-subtype over the estrogen receptor α-subtype: ≥ 20
Compound: C=Cc1ccccc1-c1c(C(N)=NO)cc(F)cc1-c1ccc(O)cc1 [Example 170, 5′-fluoro-N′,4-dihydroxy-2′′-vinyl-[1,1′:2′,1′′-terphenyl]-3′-carboximidamide]

- selectivity for the estrogen receptor β-subtype over the estrogen receptor α-subtype: ≥ 20
Compound: Cc1cc(C(N)=NO)c(-c2ccc(Cl)cc2F)c(-c2ccc(O)cc2)c1 [Example 191, 4′′-chloro-2′′-fluoro-N′,4-dihydroxy-5′-methyl-[1,1′:2′,1′′-terphenyl]-3′-carboximidamide]

- selectivity for the estrogen receptor β-subtype over the estrogen receptor α-subtype: ≥ 20
Compound: Cc1cc(C(N)=NO)c(-c2ccccc2OC(F)(F)F)c(-c2ccc(O)cc2)c1 [Example 216, N′,4-dihydroxy-5′-methyl-2′′-(trifluoromethoxy)-[1,1′:2′,1′′-terphenyl]-3′-carboximidamide]

- selectivity for the estrogen receptor β-subtype over the estrogen receptor α-subtype: ≥ 20
Compound: Cc1cccc(-c2c(C(N)=NO)cc(C(F)(F)F)cc2-c2ccc3[nH]ncc3c2)c1 [Example 354, N′-hydroxy-6-(1H-indazol-5-yl)-3′-methyl-4-(trifluoromethyl)-[1,1′-biphenyl]-2-carboximidamide]
